Key:
[1] = general procedure: Fmoc solid-phase peptide synthesis; Fmoc PAL PEG PS resin (PerSeptive Biosystems); conditions: conjugation step
[2] = general procedure: Fmoc solid-phase peptide synthesis; Fmoc PAL PEG PS resin; conditions: whole synthesis, scale 0.15 mmole, trifluoroacetic acid

| Substance | final purity (method not given) ([1]; 1H NMR, trifluoroacetic acid salt, hydrochloride for conjugate) | conjugation yield ([1]; absorption at 502 nm, hydrochloride) | isolated mass [2] | isolated yield [2] |
| --- | --- | --- | --- | --- |
| BODIPY-Cys(Arg)9 (CRRRRRRRRR; N-acetyl, C-amide, BODIPY label on Cys) | better than 95% purity | 56% | – | – |
| ace-CRRRRRRRRR-am | – | – | 40 mg | 10% |
